Measurements from patent US20240025993A1, “CD19 BINDING MOLECULES AND USES THEREOF” (NOVARTIS AG, priority 2020, published 2024).
These are yes or no findings as the source states them, for the method shown. Some entries that bind do so weakly or less than the wild type.

B1: NEG258 (antibody, V domains shown)
VH: QVQLVQSGAEVKKPGASVKVSCKASGYTFTTYWIQWVRQAPGQRLEWMGAVYPGDADTRYTQKFQGRVTLTADRSASTAYMELSSLRSEDTAVYYCGRDAGLEYYALDYWGQGTLVTVSS
VL: EIVMTQSPATLSVSPGERATLSCRASQDVGTAVAWYQQKPGQAPRLLIYWASTRHTGIPARFSGSGSGTEFTLTISSLQSEDFAVYFCQQYANFPLYTFGQGTKLEIK
B2: NEG218 (antibody, V domains shown)
VH: EVQLVQSGAEVKKPGESLKISCKASGYSFTNYWMNWVRQMPGKGLEWMGMIHPSDSEIRLNQKFQGQVTLSVDKSIGTAYMQWSSLKASDTAMYYCSRWYYLSSPMDYWGQGTTVTVSS
VL: EIVMTQSPATLSVSPGERATLSCRASQDVGTAVAWYQQKPGQAPRLLIYWASTRHTGIPARFSGSGSGTEFTLTISSLQSEDFAVYFCQQYSSYPYTFGQGTKLEIK

Target: cynomolgus (cyno) CD19 (cynomolgus)
Experiment: summary sentence of the examples; no method at this place

Binder	binding
B1	binds
B2	binds
